# Results of single-concentration screens

Amino acid sequences for entries named in this document (tags omitted). Residues count along the entry.
UniProt A4I591, 1-473: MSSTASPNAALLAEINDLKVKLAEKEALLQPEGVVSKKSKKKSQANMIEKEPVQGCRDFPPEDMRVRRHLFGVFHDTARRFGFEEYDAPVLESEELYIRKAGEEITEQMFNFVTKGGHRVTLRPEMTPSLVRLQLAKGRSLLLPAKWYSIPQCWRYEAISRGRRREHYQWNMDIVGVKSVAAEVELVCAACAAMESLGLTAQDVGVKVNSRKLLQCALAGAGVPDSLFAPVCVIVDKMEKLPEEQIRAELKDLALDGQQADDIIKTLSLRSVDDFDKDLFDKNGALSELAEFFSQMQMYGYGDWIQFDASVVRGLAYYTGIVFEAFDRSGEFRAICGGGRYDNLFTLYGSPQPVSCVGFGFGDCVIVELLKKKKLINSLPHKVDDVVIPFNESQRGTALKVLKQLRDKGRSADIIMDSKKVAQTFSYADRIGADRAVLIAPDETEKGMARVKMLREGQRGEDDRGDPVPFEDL
UniProt P9WFT3, whole entry: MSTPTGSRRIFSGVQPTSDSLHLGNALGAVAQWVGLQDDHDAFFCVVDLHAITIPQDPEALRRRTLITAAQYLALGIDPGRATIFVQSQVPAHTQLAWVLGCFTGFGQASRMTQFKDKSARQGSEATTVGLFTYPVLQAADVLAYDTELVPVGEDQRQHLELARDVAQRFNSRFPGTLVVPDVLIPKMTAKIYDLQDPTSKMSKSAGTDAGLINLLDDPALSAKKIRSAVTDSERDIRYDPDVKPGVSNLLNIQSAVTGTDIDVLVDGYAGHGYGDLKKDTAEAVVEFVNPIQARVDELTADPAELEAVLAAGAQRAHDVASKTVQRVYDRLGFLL
UniProt P9WNZ1, whole entry: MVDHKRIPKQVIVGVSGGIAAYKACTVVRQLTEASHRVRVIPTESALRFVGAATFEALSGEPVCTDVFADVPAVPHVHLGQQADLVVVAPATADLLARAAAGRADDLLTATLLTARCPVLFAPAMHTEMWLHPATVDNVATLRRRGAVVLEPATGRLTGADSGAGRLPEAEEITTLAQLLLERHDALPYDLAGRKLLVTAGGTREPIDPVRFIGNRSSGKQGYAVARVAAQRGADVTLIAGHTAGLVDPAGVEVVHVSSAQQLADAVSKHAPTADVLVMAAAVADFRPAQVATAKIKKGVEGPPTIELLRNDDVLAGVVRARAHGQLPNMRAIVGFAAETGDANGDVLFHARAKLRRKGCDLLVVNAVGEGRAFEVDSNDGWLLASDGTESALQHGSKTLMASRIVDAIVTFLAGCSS

Data taken from ChEMBL document CHEMBL3988442, “University of Dundee, Small-Polar-MMV Screening Library” (2021).

Each number is a percent effect as filed. The record does not define 0% and 100%; most values in the screen are far below 50% and negative numbers occur (in some assays of this library far below -100). This is an unselected part of the compounds tested. A dash means the value is not listed here; it may have been measured.

LiHisRS: 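Enzyme assay of histidyl-tRNA synthetase; the read-out is not stated. Target: Histidine-tRNA ligase, Leishmania infantum (UniProt A4I591). Tested at 30 µM. Higher reads as stronger inhibition (inferred: compounds with an IC50 in retests scored well above the rest). The assay is labelled LdHisRS but filed under L. infantum. About 69,000 compounds were tested under these conditions; 0.6% (about 410) showed 50% or more at least once.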
MtTrpRS: 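Tryptophan-tRNA ligase, Mycobacterium tuberculosis (UniProt P9WFT3). Enzyme assay of tryptophanyl-tRNA synthetase; the read-out is not stated. Concentration: 10 µM. Direction is not recorded; retested compounds ran higher, which suggests that high means inhibition. Size under these conditions: about 65,000 compounds, about 64 of them at 50% or above in at least one test.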
Toxoplasma: 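Assay of Toxoplasma gondii numbers, read through their beta-galactosidase reporter with a colour substrate. Concentration: 10 µM. Higher reads as fewer parasites (inferred from which compounds were picked for retests). Of about 67,000 compounds tested this way, about 260 (0.38%) reached 50% or more in at least one test.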
CoaBC: 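Coenzyme A biosynthesis protein CoaBC, Mycobacterium tuberculosis (UniProt P9WNZ1). Enzyme assay of CoaBC with a phosphate dye (Biomol Green) read at 650 nm. Compounds at 30 µM. Direction is inferred from only a few compounds that gave an IC50; most scored high, so higher reads as stronger inhibition. Most strong results did not repeat in a second test. Size under these conditions: about 67,000 compounds, about 40 of them at 50% or above in at least one test.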

structure,LiHisRS,MtTrpRS,Toxoplasma,CoaBC
Cn1nc2c(cc1=O)CN(c1ncnc3ccsc13)CC2,100,-1.519,82.27,9.339
C[C@@H]1CN(C(=O)c2cccs2)C[C@]12CCN(CCN(C)C)C2=O,0,-0.8397,-,-0.9674
Cc1nccn1CC1CCCN(C(=O)c2cnn(C)c2)C1 (centres unmarked),20,-,-20.14,2.289
COc1nccc(C(F)(F)F)c1C(=O)O,6.25,0.8578,-17.29,-3.222
CN(C)CCN1CCN(Cc2cccs2)Cc2cccnc21.O=C(O)C(F)(F)F.O=C(O)C(F)(F)F.O=C(O)C(F)(F)F,-,-,-8.838,-
N#CCCN(C(=O)CN1CCCC1c1cccs1)c1ccccc1F (centres unmarked),23.85,1.355,9.388,7.597
Cc1nc(-c2ccccc2F)sc1C(=O)N1CCC(=O)CC1,23.38,4.079,-8.156,-0.2554
c1cncc(-c2ccnn2CN2CCC3(CC2)OCCO3)c1,7.853,-3.95,1.685,4.348
COc1cccc(N2CCN(CCC(=O)NC3CCCCC3)CC2)c1,13.7,15.61,-15.27,2.767
COc1cccc(C(=O)C2CCCN(c3cc(C#N)ccn3)C2)c1 (centres unmarked),16.13,0.9009,9.098,3.329
Cl.Cl.O[C@@H]1C[C@@](CNCC2CC2)(COc2cccnc2)C[C@@H]1O,-,-,-0.5932,-
[H][C@]12CCC[C@@]1(COc1ccccn1)CN(C(=O)Cc1ccccn1)C2,-,-,7.788,-
O=C(NC1CC1)N1Cc2[nH]nc(COc3cccnc3)c2C1,11.5,-0.3984,-,0.6316
NC(=O)CC1CCN(C(=O)NCCc2ccc(Cl)s2)CC1,14.78,-0.2556,-11.22,6.997
COc1cc(C)ccc1S(=O)(=O)N1CC[C@](C)(O)[C@H](C)C1,11.2,1.655,15.88,-2.439
CC(=O)NCC(=O)N1Cc2c(-c3cccc(C)c3)nc(N)nc2C1C (centres unmarked),18.68,0.154,25.44,-5.66
CC1CCN(C(=O)CSCCN2CCOCC2)CC1,10.2,1.615,8.413,3.471
c1cnc(N2CCOCC3(CCCN(CC4CCOCC4)C3)C2)nc1 (centres unmarked),5.714,-0.1627,-,-17.26
CCCN1CC[C@@H]2[C@@H](CO[C@H]2CNC(=O)c2nccn2C)C1,8,-4.497,-,2.709
O=C(NCc1n[nH]c2c1CCCCC2)c1cnn2c1CCCC2,14.17,-5.499,-22.49,5.342
O=C(NCCc1ccncc1)c1cccc(S(=O)(=O)NC2CCOC2)c1 (centres unmarked),20.35,-1.424,2.013,4.034
CCn1nc(C)cc1C(=O)OCC1CC(=O)N(Cc2ccccc2)C1 (centres unmarked),1.77,-1.905,22.12,2.893
Cc1cc(=O)c2ccccc2n1CC1CCCN(C)C1 (centres unmarked),17.74,0.1837,5.42,11.73
CC(C)c1nc(O)c2nnn(C[C@H]3CCCN(Cc4ccsc4)C3)c2n1,0,-3.465,-,5.938
CCN(C(=O)c1ccc2nnc(C3CCN(C(C)=O)C3)n2c1)C(C)C (centres unmarked),22,-0.8994,-11.68,1.97
CN(C)CC1CN(c2ncnc3[nH]ccc23)CCO1 (centres unmarked),10.81,-3.216,-0.1687,9.138
CC(C)(C)C(=O)NCCC(=O)NCCc1ccn(-c2ccccc2)n1,10.26,0.6246,14.46,-8.579
CC(C)OCCN1CCN(C(=O)c2cccc(CC#N)c2)CC1,13.7,0.2398,-4.659,0.241
CNC(=O)Nc1cc(-c2ccc(Br)cc2)nn1CCO,20,0.7415,-1.357,-6.613
[H][C@]12OCCN(Cc3ccc(C)o3)[C@@]1([H])CC[C@@H]2OCc1cccnc1,-,-,2.431,-
CCc1nc(C2CCCN2CCS(=O)(=O)c2ccccc2)no1 (centres unmarked),6.481,-1.203,2.191,-1.579
CCC(CC)C(=O)NCc1cn2cc(Br)ccc2n1,20.54,-0.07241,12.33,10.74
NCCn1cc(C(=O)NCc2ccccc2Cn2cccn2)nn1,11.48,-2.835,5.138,0.5115
C[C@@H](NC(=O)c1ccc(Cl)cc1)c1onc(-c2cccnc2)c1C(=O)O,24.32,-6.636,-,-0.1965
O=C(NCCn1ccc(-c2ccccn2)n1)C1CC1,6.796,-5.843,-3.215,1.394
O=C(c1ccncn1)N1C[C@@H]2CN(Cc3cccnc3)CCO[C@@H]2C1,18.18,-2.616,-,2.101
Cc1ncsc1CCN(C)C(=O)c1ncccc1O,11.46,5.901,8.66,-1.285
COC(=O)CN1CCN(c2cccc(C)c2)CC1,6.452,-0.1347,5.452,3.758
CCOCCN1Cc2cnn(C)c2C(COCC)C1.O=C(O)C(F)(F)F.O=C(O)C(F)(F)F (centres unmarked),-,-,-1.809,-
CC(C)NC(=O)N1CCN(C(=O)N(C)C)CC2(CC(=O)N(C)C2)C1 (centres unmarked),17.31,6.942,2.935,11.39
CC(C)CN1CCC2(CC1)CN(C(=O)C(C)C)C2,17.48,-3.8,-,5.344
CC(=O)Nc1ccc(CNc2cccc(CS(C)(=O)=O)c2)cc1,15.32,-5.508,-3.636,6.226
Cc1ccsc1C(=O)N1CCC2(CC(N(C)c3ccncn3)C2)C1 (centres unmarked),10.14,-,-6.808,0.2427
COc1cccc(CN(C)CC(=O)NC2(C)CCS(=O)(=O)C2)c1 (centres unmarked),8.621,-6.257,0.1797,4.178
CCOCCCn1c(NC(=O)c2scnc2C)nc2ccccc21,32.88,-11.75,10.69,1.205
Cc1nc(CCNC(=O)NC(C)c2ccc3c(c2)OCCO3)cs1 (centres unmarked),15.04,-2.562,3.831,-3.037
COCCC1(CO)CCCN(C(=O)c2cccnc2O)C1 (centres unmarked),5.128,0.805,-8.563,1.6
Cc1ccc2c(c1)N(C(=O)C1CCCOC1)CCC2 (centres unmarked),17.24,2.169,0.5128,2.784
CS(=O)(=O)N1CCC2(CC1)CC(NCc1ccccn1)c1ccccc12 (centres unmarked),3.96,-,9.623,0.8663
Cn1cc(NC(=O)Nc2ccc3c(c2)OCO3)cn1,41.46,1.336,-4.908,5.216
Cn1nc(C(=O)N2CCOCC2)cc1C(=O)Nc1cc(Cl)cc(Cl)c1,8.929,0.5025,-1.096,0.578
OCCOCc1n[nH]c2c1CN(Cc1ccco1)C2,12.82,19.25,-,11.25
CN(C)CCOCC1CN(CCN(C)C)Cc2ccnn2C1 (centres unmarked),12.73,1.569,5.767,-8.403
O=C(O)C(F)(F)F.O=C(O)C(F)(F)F.O=C(O)C(F)(F)F.[H][C@@]12COC[C@]1(COc1cccnc1)CN(Cc1cccc(C)n1)C2,-,-,-3.644,-
CC[C@H]1COCCN1C(=O)c1cnc(-c2ccccc2)nc1C,15.08,3.062,23.91,2.211
O=C(O)C(F)(F)F.[H][C@]12CCC[C@@]1(COc1ccccn1)CN(C(=O)c1ncccn1)C2,-,-,-1.605,-
Cc1c(CN2CCCCC2)c(O)n(CCO)c(=O)c1C#N,55.94,5.157,-7.275,-6.78
COCCCN(Cc1ccccn1)Cc1ccnn1C1CCCCO1 (centres unmarked),5.674,16.06,-,-35.95
CN1CCCN(S(C)(=O)=O)c2cc(F)ccc21,26.47,1.685,-7.697,-30.96
CC(C)c1nn(C)c(N(C)C)c1CNC1CCOc2c(F)cccc21.Cl (centres unmarked),-,-,23.02,-
Cc1ccc(S(=O)(=O)NC(=O)CCc2ccccc2)cc1N(C)C,14.94,-1.06,2.407,4.698